Four molecules from article PMC7186176, “Structural basis of cell-surface signaling by a conserved sigma regulator in Gram-negative bacteria” (The Journal of Biological Chemistry, 2020) can be followed below.

Residue numbers refer to the chain shown, from its start. Numbers in names are those of the source. These are yes or no findings as the source states them, for the method shown. For some of these results: In cells and extracts the contact can be indirect. Some entries that bind do so weakly or less than the wild type. Sequences can lack the tags named with a protein.

Test [1] deals with T1, GST-tagged PupB NTSD (PupB 49–128) (Pseudomonas capeferrum) (UniProt P38047).
T1 sequence: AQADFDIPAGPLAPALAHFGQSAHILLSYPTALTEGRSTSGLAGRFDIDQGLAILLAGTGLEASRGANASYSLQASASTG
Put plainly: pull-down; MBP-tagged PupR construct and GST-tagged PupB NTSD co-expressed in E. coli BL21(DE3)pLysS; clarified lysate split in two aliquots, on amylose resin or GSH-Sepharose, 30 min at 4 °C, washed with lysis buffer (25 mM HEPES pH 7.5, 400 mM LiCl, 10% glycerol, 2 mM DTT), eluted with maltose or GSH; Coomassie-stained SDS-PAGE.

The target in test [2] is PupR CCSSD (PupR residues 110–324, MBP cleaved) (Pseudomonas capeferrum) (UniProt Q52209). The test can be described thus: SEC-SAXS; inline Superdex 200 Increase 10/300; 25 mM HEPES pH 7.5, 400 mM LiCl, 10% glycerol; 800 μM complex (1:1 mix, 30 min at room temperature) or 400 μM PupR CCSSD alone injected; ambient temperature; both purified. (In general: Size exclusion chromatography separates by hydrodynamic size, large species first.)

B1: MBP-tagged PupR CCSSD (PupR residues 110–324) (domain or fragment, Pseudomonas capeferrum, UniProt Q52209 110-324, looked up)
chain: QDWRADYHSRIGEQRRLTLADGTQVQLNTDSALNVAFDQQARRLRLVRGEMLITRPALADSRPLWVDTEHGRLESTLAQFNVRLHGQHTQATVYQGSVALQPALHAYPPILLGAGEQASFNQQGLLARQAVAAVAPAWSQGMLVAQGQPLAAFIEDLARYRRGHLACDPALAGLRVSGTFPLENTDKIIAAVAETLQLEVQHFTRYWVTLKPRMA
notes: PupR, inner membrane sigma regulator of Pseudomonas capeferrum (formerly Pseudomonas putida WCS358), periplasmic CCSSD, residues 110-324; also called complete CCSSD; C-terminal cell-surface signaling domain; source: E. coli BL21(DE3)pLysS, co-expressed with GST-PupB NTSD, clarified lysate (pull-down); not shown: MBP, N-terminal, kept
Regarding B1, the binding result in test [1] was “binds”.

B2: MBP-tagged PupR CCSSD S286A (domain or fragment, UniProt Q52209 110-324)
chain: B1 chain with S177A
With B2, in test [1], the binding entry is listed as “binds”.

B3: MBP-tagged PupR CCSSD T288A (domain or fragment, UniProt Q52209 110-324)
chain: B1 chain with T179A
As for B3, the binding result in test [1] is reported as “binds”.

B4: PupR CCSSD (PupR residues 110–324, MBP cleaved) (domain or fragment, Pseudomonas capeferrum)
chain: GAMGQDWRADYHSRIGEQRRLTLADGTQVQLNTDSALNVAFDQQARRLRLVRGEMLITRPALADSRPLWVDTEHGRLESTLAQFNVRLHGQHTQATVYQGSVALQPALHAYPPILLGAGEQASFNQQGLLARQAVAAVAPAWSQGMLVAQGQPLAAFIEDLARYRRGHLACDPALAGLRVSGTFPLENTDKIIAAVAETLQLEVQHFTRYWVTLKPRMA
notes: 4-residue cloning artifact left after TEV cleavage; PupR, inner membrane sigma regulator of Pseudomonas capeferrum (formerly Pseudomonas putida WCS358), periplasmic CCSSD, residues 110-324; 219-residue product with the GAMG artifact; About 90% pure, some MBP contamination; also called native PupR CCSSD; not shown: MBP, N-terminal, cleaved
On to B4, for which the binding result in test [2] is given as “no binding (tested: 400 μM)”.
